The assay is described as follows: qHTS Assay to Find Inhibitors of Chronic Active B-Cell Receptor Signaling. Particulars: ABC-DLBCL IkBa-CBG/CBR reporter, luminescence ratio (green luciferase fused to IkBa over red control in TMD8 lymphoma cells), 4 h. Put shortly:
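TMD8 ABC-DLBCL cells carrying doxycycline-inducible green luciferase fused to IkappaBalpha plus unfused red luciferase were exposed to compounds (up to 46 uM) for 4 hrs at 37C. Activity came from the overlap-corrected green/red luminescence ratio.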
In general terms: In qHTS, concentration-response curves come from the screen itself.

Setting [1] is: measured here: CBR red luminescence, cell number.
The mark [2] stands for this setting: measured here: IkBa-CBG green luminescence.

The list shows a part of the results. These are further read-outs of the screen, such as a control signal, another cell line or another target. No call is given for them. Compounds called inactive in the main read-out are mostly missing here. Potencies come from curve fits of mixed quality, noted in brackets.

Regarding `Cc1sc2nc(CN3CCCC3)nc(Cl)c2c1C`, the AC50 under setting [1] is 25.9 µM [falling, partial curve, poor fit].

With `O=C(Nc1nccc(-c2cccs2)n1)c1cccs1`, under setting [1], the AC50 is 7.08 µM [falling, partial curve].

Consider `CC(NC(=O)Cc1ccc(F)cc1)C(c1cccs1)N1CCN(C)CC1` (stereo unspecified), for which, under setting [1], the AC50 was 20.6 µM [rising, partial curve].

In the case of `Cc1c(C)c2c(OCC(=O)N[C@@H](CC(C)C)C(=O)O)cc3c(c2oc1=O)CCC(C)(C)O3`, the AC50 under setting [1] is 8.91 µM [falling, partial curve, poor fit].

In the case of `CCOC(=O)C1CCN(C(=O)Nc2ccc(C)c(Cl)c2)CC1`, under setting [1], the AC50 was 5.62 µM [falling, full curve, poor fit].

For the molecule `Cc1cc(C(=O)OCC(=O)c2cccs2)ccc1[N+](=O)[O-]`, the AC50 under setting [1] is 29.1 µM [rising, partial curve, poor fit].

With `CCCNC(=O)COc1ccc(-c2nn(C)c(=O)c3ccccc23)cc1`, the AC50 under setting [1] was 2.51 µM [rising, partial curve, poor fit].

`COc1ccc(CN2C(=O)c3ccccc3C2=O)cc1C(=O)N(C)CC(=O)Nc1ccc(F)cc1`: under setting [1], the AC50 is 6.51 µM [falling, single point].

In the case of `Cc1ccnc(NC(=O)c2cc3cc(F)ccc3s2)c1`, the AC50 under setting [1] is 5.62 µM [falling, partial curve].

As to `CCOC(=O)c1[nH]c(Cc2[nH]c(C(=O)OCC)c(C)c2CCC(=O)OC)c(CCC(=O)OC)c1C`, the AC50 under setting [1] is 3.16 µM [rising, partial curve, poor fit].

As for `CCN(CC)CCCNC(=O)c1cn(C)c2ccc(S(=O)(=O)N(C)C)cc2c1=O`, under setting [1], the half-maximal activity concentration (AC50) was 1.16 µM [falling, partial curve, poor fit].

Take `Nc1nn(-c2ccccc2)c(N)c1N=Nc1ccc2c(c1)OCO2`: under setting [1], the AC50 is 8.2 µM [falling, partial curve].

For the molecule `COc1ccc(N=C(C)C2=C(O)CSC2=O)cc1`, the AC50 under setting [1] is 3.26 µM [rising, single point].

Take `CC(=O)Nc1cccc(/C(C)=N/NC(=O)c2ccc(NS(=O)(=O)c3cccs3)cc2)c1`: the AC50 under setting [1] is 11.2 µM [falling, partial curve].

As to `COC(=O)CCCCC1SCC(NC(=O)OC)C1NC(=O)OC` (stereo unspecified), the AC50 under setting [1] is 3.98 µM [rising, full curve, poor fit].

In the case of `CCOC(=O)CCCCCC(=O)Nc1ccc2c(c1)C(=O)N([C@H](C)CO)C[C@@H](C)[C@H](CN(C)S(=O)(=O)c1cn(C)cn1)O2`, the AC50 under setting [1] was 29.1 µM [rising, single point].

Turning to `Cc1csc(NC(=O)CCCNC(=O)c2ccc(Cl)cc2)n1`, under setting [1], the AC50 is 6.51 µM [rising, full curve].

For `O=C1COc2ccc(C(=O)CSc3nnc(Cc4cccs4)n3-c3ccccc3)cc2N1`, the AC50 under setting [1] was 20.6 µM [rising, single point].

On to `CCOc1ccc(C(=O)NCC(c2cccs2)S(=O)(=O)c2ccccc2)cc1` (stereo unspecified), for which, under setting [1], the concentration at half-maximal activity (AC50) was 0.398 µM [rising, full curve].

For `N#C/C(=C\c1cccnc1)C(=O)Nc1ccccc1[N+](=O)[O-]`, under setting [1], the AC50 is 14.1 µM [falling, partial curve, poor fit].

Consider `Cc1cccc(C(=O)N2CCc3cc(CNC(=O)CSc4ccccc4)ccc32)c1`, for which the AC50 under setting [1] was 35.5 µM [falling, single point].

Consider `O=S(=O)(Nc1ccc(-n2cccc2)cc1)c1ccc(F)cc1`, for which the AC50 under setting [1] is 25.1 µM [rising, single point].

In the case of `O=C(CCl)N1CCN(S(=O)(=O)Cc2ccccc2)CC1`, the AC50 under setting [1] is 14.6 µM [falling, single point].

For `Nc1nc(Nc2ccccc2)nc(NCc2ccco2)c1[N+](=O)[O-]`, the half-maximal activity concentration (AC50) under setting [1] is 23.1 µM [falling, partial curve, poor fit].

With `CCn1c(O)c(C=NC2CCCC(C)C2C)sc1=S` (stereo unspecified), the AC50 under setting [1] was 12.6 µM [falling, single point].

`C=CCn1c(SC2CCOC2=O)nc2sc(CC)cc2c1=O` (stereo unspecified): under setting [1], the AC50 is 5.62 µM [rising, partial curve].

As to `S=C(NCc1ccco1)Nc1ccc(Cl)cc1`, the AC50 under setting [1] is 32.6 µM [falling, single point].

On to `C=CCN1C(=O)C(CC(=O)O)SC1=Nc1cccc([N+](=O)[O-])c1` (stereo unspecified), for which the AC50 under setting [1] is 35.5 µM [rising, single point].

As for `O=C(Oc1ccccc1)c1ccc2nccnc2c1`, the AC50 under setting [1] is 0.731 µM [rising, full curve, poor fit].

As to `NC(=O)C1CCN(CC(=O)c2c[nH]c3ccc(F)cc23)CC1`, under setting [1], the AC50 is 29.1 µM [falling, single point].

For the molecule `O=C(Nc1ccccc1N1CCOCC1)c1cc(Cl)c2c(c1)OCO2`, the AC50 under setting [1] was 23.1 µM [rising, partial curve, poor fit].

`CSc1ncccc1C(=O)Nc1nc2ccc(Oc3ccccc3)cc2s1`: the AC50 under setting [1] was 1.64 µM [rising, full curve, poor fit].

Consider `COc1ccc(-c2nc3nc(C)cc(=O)n3[nH]2)cc1`, for which the AC50 under setting [1] was 8.2 µM [falling, partial curve].

For `Clc1ncnc2c1oc1ccccc12`, the AC50 under setting [1] is 16.4 µM [rising, single point].

`Cc1cc(C(=O)CN2CCN(CC(=O)Nc3cccc(F)c3)CC2)c(C)n1C1CC1`: under setting [1], the concentration at half-maximal activity (AC50) is 16.4 µM [falling, single point].

Take `Cc1ccc(OCC(=O)Nc2cccc3nsnc23)c(C)c1`: under setting [1], the AC50 was 32.6 µM [falling, single point].

Turning to `CCOC(=O)c1sc(-c2ccc(Cl)cc2)nc1O`, the AC50 under setting [1] is 12.6 µM [falling, single point].

In the case of `CCNC(=O)[C@H]1O[C@@H](n2cnc3c(N)nc(NCCc4ccc(CCC(=O)O)cc4)nc32)[C@H](O)[C@@H]1O`, the AC50 under setting [2] is 0.398 µM [falling, full curve, poor fit].

`CCOc1ccc(C(=O)N/N=C/c2ccc(SC)cc2)cc1`: the AC50 under setting [1] was 0.259 µM [falling, full curve].

Turning to `CCOC(=O)N1CCN(C(=O)c2noc3c2COc2ccccc2-3)CC1`, under setting [1], the AC50 was 3.98 µM [rising, partial curve, poor fit].

Turning to `Cc1ccc(NC(=O)C(OC(=O)c2ccc(NC(N)=O)cc2)c2ccccc2)cc1Cl` (stereo unspecified), under setting [1], the AC50 is 29.1 µM [falling, partial curve, poor fit].

For `N#CCCNS(=O)(=O)c1ccc(C(=O)OCCCOC(=O)c2ccc(S(=O)(=O)NCCC#N)cc2)cc1`, the AC50 under setting [1] is 22.4 µM [falling, partial curve].

`C/C(=N\NC(=O)c1ccc(NS(=O)(=O)c2cccs2)cc1)c1cccs1`: the AC50 under setting [1] was 14.1 µM [falling, partial curve].

For `C=CCO/N=C(/CCC)C1=C(N)CC(C)(C)CC1=O`, under setting [1], the AC50 was 35.5 µM [rising, single point].

`COc1ccc(NC(=O)CNc2cccc(C#N)c2)cc1Cl`: the AC50 under setting [1] is 8.2 µM [rising, partial curve].

With `CCOC(=O)CSc1nnc(NC(=O)c2ccc3c(c2)OCO3)s1`, under setting [1], the AC50 was 2.24 µM [falling, full curve].

For the molecule `COc1ccc2cc(C(=O)N(C)Cc3ccccc3)[nH]c2c1`, the AC50 under setting [1] was 0.447 µM [rising, full curve, poor fit].

For the molecule `Cc1ccc(C(=O)NC(=S)Nc2ccc(-c3ccc(CO)o3)cc2)cc1`, the AC50 under setting [1] was 3.16 µM [falling, partial curve, poor fit].

With `CC1=[N+](C)c2c(ccc3cccnc23)C1(C)C`, the AC50 was 17.8 µM [falling, partial curve] under setting [1] and 35.5 µM [rising, partial curve, poor fit] under setting [2].

For the molecule `Cc1ccc(-c2nc(-c3ccccn3)no2)cc1Cl`, under setting [1], the AC50 was 3.98 µM [falling, full curve].

Consider `CCCCSCc1nc2ccccn2c1Br`, for which the AC50 under setting [1] is 12.6 µM [rising, partial curve, poor fit].

As to `O=C(Nc1nnc(CCN2CCCCC2)s1)c1ccc(Cl)cc1Cl`, the AC50 under setting [1] was 0.631 µM [rising, full curve, poor fit].

Take `COc1cc(C(=O)NCCOc2ccc(F)cc2)c(Br)c(OC)c1OC`: the AC50 under setting [1] is 17.8 µM [rising, partial curve, poor fit].

On to `COc1ccc(C(=O)OCC(=O)N(C)C2CCS(=O)(=O)C2)cc1S(=O)(=O)N1CCCc2ccccc21` (stereo unspecified), for which the AC50 under setting [1] was 10 µM [rising, partial curve, poor fit].

As to `Cc1ccc2nc(N3CCN(C(=O)C4COc5ccccc5O4)CC3)sc2c1` (stereo unspecified), the AC50 under setting [1] was 12.6 µM [rising, partial curve, poor fit].

With `CCOC(=O)c1c(C)nc(C)c2c(=O)oc3ccccc3c12`, the AC50 under setting [1] was 2.82 µM [rising, partial curve, poor fit].

`CCCC(=O)Nc1ccc(Br)cn1`: the AC50 under setting [1] is 9.2 µM [rising, partial curve, poor fit].

For `COc1ccc(OC)c(/C=C2\SC(=S)N(NS(=O)(=O)c3ccccc3)C2=O)c1`, the AC50 is 7.08 µM [falling, partial curve, poor fit] under setting [1] and 15.8 µM [rising, partial curve, poor fit] under setting [2].

In the case of `Cc1ccc(NC2SC(=O)N(CC(=O)O)C2=O)cc1` (stereo unspecified), the AC50 under setting [1] was 23.1 µM [rising, single point].

On to `Cc1cccc(/C=N/NC(=O)c2cc3c(s2)-c2ccccc2CC3)c1`, for which the AC50 under setting [1] is 3.66 µM [falling, partial curve, poor fit].

Take `CCOC(=O)N1CCN(c2ncnc3c2cnn3-c2ccc(OC)cc2)CC1`: the AC50 under setting [1] is 35.5 µM [rising, single point].

In the case of `C(=C\c1ccccc1)/CSc1nnc(-c2cnccn2)n1Cc1ccco1`, under setting [1], the half-maximal activity concentration (AC50) is 16.4 µM [falling, partial curve].

For the molecule `O=C(CC1Oc2ccccc2NC1=O)NCCc1ccccc1` (stereo unspecified), under setting [1], the AC50 was 9.2 µM [falling, single point].

For the molecule `COc1ccc(Cc2nnc(NC(=O)c3cc(OC)cc(OC)c3)s2)cc1`, the AC50 under setting [1] is 8.91 µM [rising, partial curve].

One may read the AC50 as the midpoint of the concentration-response curve, whichever way the signal moves.

Source of the values: PubChem BioAssay AID493014 (National Center for Advancing Translational Sciences (NCATS), 2011).
